Reference: article PMC9129000
Results are given in words; binding and its absence hold for the method and conditions named. Some entries that bind do so weakly or less than the wild type.

Biological target: T1, EIN3 (UniProt O24606)
T1 sequence: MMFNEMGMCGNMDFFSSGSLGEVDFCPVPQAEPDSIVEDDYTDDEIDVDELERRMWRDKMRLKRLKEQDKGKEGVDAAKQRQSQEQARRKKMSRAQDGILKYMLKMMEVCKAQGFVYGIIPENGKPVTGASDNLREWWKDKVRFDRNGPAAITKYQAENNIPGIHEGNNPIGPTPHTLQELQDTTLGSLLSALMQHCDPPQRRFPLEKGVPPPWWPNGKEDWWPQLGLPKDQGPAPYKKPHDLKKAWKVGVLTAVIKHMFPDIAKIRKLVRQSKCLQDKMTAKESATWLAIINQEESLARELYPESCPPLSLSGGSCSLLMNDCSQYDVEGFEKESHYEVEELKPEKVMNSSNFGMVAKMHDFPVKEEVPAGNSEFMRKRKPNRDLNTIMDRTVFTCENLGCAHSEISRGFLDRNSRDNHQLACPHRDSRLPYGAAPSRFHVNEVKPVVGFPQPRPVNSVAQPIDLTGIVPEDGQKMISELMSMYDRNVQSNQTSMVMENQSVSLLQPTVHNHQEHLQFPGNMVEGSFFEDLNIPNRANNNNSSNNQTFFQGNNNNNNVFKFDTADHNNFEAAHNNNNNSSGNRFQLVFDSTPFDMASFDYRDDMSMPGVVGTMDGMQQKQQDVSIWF
Assay: two-hybrid; GAL4 AD and BD fusions co-transformed in yeast strain AH109; serial dilutions spotted on SD-LW and SD-LWH media; 30°C

- binding: binds
B1: F-box protein EBF2 (protein, UniProt Q708Y0 1-623)
chain: MSGIFRFSGDEDCLLGGSMYLSPGSCPGVYYPARKRLRVAATSFYSGFEEKQTSIDVLPEECLFEILRRLPSGQERSACACVSKHWLNLLSSISRSEVNESSVQDVEEGEGFLSRSLEGKKATDLRLAAIAVGTSSRGGLGKLQIRGSGFESKVTDVGLGAVAHGCPSLRIVSLWNLPAVSDLGLSEIARSCPMIEKLDLSRCPGITDSGLVAIAENCVNLSDLTIDSCSGVGNEGLRAIARRCVNLRSISIRSCPRIGDQGVAFLLAQAGSYLTKVKLQMLNVSGLSLAVIGHYGAAVTDLVLHGLQGVNEKGFWVMGNAKGLKKLKSLSVMSCRGMTDVGLEAVGNGCPDLKHVSLNKCLLVSGKGLVALAKSALSLESLKLEECHRINQFGLMGFLMNCGSKLKAFSLANCLGISDFNSESSLPSPSCSSLRSLSIRCCPGFGDASLAFLGKFCHQLQDVELCGLNGVTDAGVRELLQSNNVGLVKVNLSECINVSDNTVSAISVCHGRTLESLNLDGCKNITNASLVAVAKNCYSVNDLDISNTLVSDHGIKALASSPNHLNLQVLSIGGCSSITDKSKACIQKLGRTLLGLNIQRCGRISSSTVDTLLENLWRCDILY
